Reference: paper PMC12292810
Results are given in words; binding and its absence hold for the method and conditions named. For some assays here: Binding seen in cells or lysates may run through a third protein. Some entries that bind do so weakly or less than the wild type. For some assays here: Where a sequence is shown, tags or fusion partners need not be part of it. Each block holds one molecule with its values, some of them ahead of it.

Amino acid sequences for entries named in this document (tags omitted).
UniProt P13164: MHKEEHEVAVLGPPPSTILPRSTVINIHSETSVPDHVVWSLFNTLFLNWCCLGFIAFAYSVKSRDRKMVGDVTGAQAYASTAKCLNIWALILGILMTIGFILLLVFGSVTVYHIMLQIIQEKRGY

How the values were obtained:
[1] = biological target: T1, pGBKT7-ABHD17A (Gal4-binding domain fusion of ABHD17A) (human) (UniProt Q96GS6); test: two-hybrid; yeast AH109; pGBKT7-ABHD17A (bait) and pGADT7-IFITM1 (prey); SD-TLH and SD-TLHA with X-α-Gal, 30 °C, blue colonies
T1 sequence: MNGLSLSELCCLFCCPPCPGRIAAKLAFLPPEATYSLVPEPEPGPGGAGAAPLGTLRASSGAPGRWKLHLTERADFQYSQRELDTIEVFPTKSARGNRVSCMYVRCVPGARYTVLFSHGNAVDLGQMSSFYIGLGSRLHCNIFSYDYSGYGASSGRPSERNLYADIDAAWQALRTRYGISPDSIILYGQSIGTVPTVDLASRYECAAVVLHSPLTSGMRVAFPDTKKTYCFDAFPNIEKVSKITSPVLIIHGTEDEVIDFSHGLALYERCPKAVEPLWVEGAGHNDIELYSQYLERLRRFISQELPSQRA

GST-ABHD17A (human) = biological target: T2, GST-ABHD17A (human) (UniProt Q96GS6); test: pull-down; 20 μg GST or GST-ABHD17A on Glutathione Sepharose beads, 100 μg His-IFITM1 added, 2 h at 4 °C; Coomassie Blue staining; both purified
T2 sequence: T1 sequence

IFITM1-VC (human) = IFITM1-VC (human) (UniProt P13164); test: split reporter; BiFC with Venus halves (VN 1-173, VC 174-239) in living HEK293 cells, 24 h after transfection, confocal microscopy
[2] = biological target: endogenous IFITM1 (interferon-inducible transmembrane 1) (human (endogenous in HEK293)) (UniProt P13164); test: co-IP; endogenous proteins in HEK293 lysate; anti-IFITM1 as bait antibody, normal mouse IgG as negative control; Triton X-100 buffer (20 mM Tris pH 7.4, 1% Triton-X100, 150 mM NaCl)
Flag-IFITM1 (human) = Flag-IFITM1 (human) (UniProt P13164); test: co-IP; transfected HEK293 or A549 cells; anti-Flag on Protein A + G magnetic beads, 4 °C overnight, eluted with 3×Flag peptide; Triton X-100 buffer (20 mM Tris pH 7.4, 1% Triton-X100, 150 mM NaCl); Western blotting

B1: ABHD17A-VN (protein, UniProt Q96GS6 1-310)
chain: T1 sequence
binding (IFITM1-VC (human)): binds

B2: endogenous ABHD17A (α/β-hydrolase domain-containing 17A) (protein, UniProt Q96GS6 1-310)
chain: T1 sequence
binding [2]: binds

B3: ABHD17A-EGFP (protein, UniProt Q96GS6 1-310)
chain: T1 sequence
binding (Flag-IFITM1 (human)): binds

Further lines, results first:

binding [1]: binds
Molecule: pGADT7-IFITM1 (activation domain fusion of IFITM1) (from UniProt P13164 1-125)

binding (GST-ABHD17A (human)): binds
Molecule: human His-IFITM1 recombinant protein (from UniProt P13164 1-125)
